# Reference: the supplement of paper PMC12578635
# ± gives the standard deviation of the averaged measurements. The list shows a part of the results. Many values rest on one well or one pass, so single values are uncertain.
# Test system: RAW 264.7 macrophages infected with S. aureus JE2-lux
# Experiment: host macrophage viability (CellTiter-Fluor) relative to DMSO vehicle; higher = more viable host cells
# Details: 10 µM; treatment time 4 h; gentamicin 50 µg/ml
row,SMILES,host macrophage viability [%]
1,C=CCOc1ccccc1NC(=O)c1c(-c2ccncc2)noc1C,90.4
2,COc1ccc(S(=O)(=O)N(C(C)=O)c2ccc3oc(C)c(C(C)=O)c3c2)cc1,114
3,CC1Cc2cc(-c3nn(-c4ccccc4)cc3/C=C3\SC(=S)NC3=O)ccc2O1 (centres undefined),105
4,CCOC(=O)CSC1=C(C#N)C(c2ccccc2[N+](=O)[O-])C(C(=O)OC)C(=O)N1 (centres undefined),133
5,O=C(O)c1ccc2c(c1)C(=O)N(CCCN1CCOCC1)C2=O,128
6,COc1ccc(NC(=O)N2c3ccccc3CC2C(N)=O)c(OC)c1 (centres undefined),113
7,COc1ccc(-n2ccn(CC(=O)Nc3ccc(Br)cc3F)c(=O)c2=O)cc1Cl,119
8,COc1ccc(C)c2sc(N(Cc3ccccc3)C(=O)c3ccco3)nc12,124
9,COCCNC(=O)COc1ncnc2onc(-c3ccc(F)cc3)c12,128
10,COc1ccccc1Cn1c(=S)[nH]c2cc(C(=O)N3CCCCC3)ccc2c1=O,109
11,Cn1ncc2c1CCc1sc(NC(=O)CCC3CCCCC3=O)nc1-2 (centres undefined),108
12,Cc1oc2ncnc(N3CCCC(C(=O)Nc4ccc(F)c(F)c4)C3)c2c1C (centres undefined),106
13,CC1CCc2c(sc3ncn(C4CCN(C(=O)c5cc[nH]n5)CC4)c(=O)c23)C1 (centres undefined),94.9
14,COc1ccc(C(=O)NCCc2cc3c(C)ccc(C)c3[nH]c2=O)c(OC)c1,122
15,O=C(CSCc1ccccc1)Nc1cccc2c1C(=O)NC2=O,103
16,CC(CCc1ccccc1)NC(=O)Cn1c2c(c(=O)n3nc(-c4ccccc4)nc13)CCC2 (centres undefined),104
17,Cc1cc(Oc2ncnc(N)c2[N+](=O)[O-])cc(C(C)C)c1,125
18,CC(C)[C@H](Cn1nc(C2CC2)ccc1=O)NC(=O)c1cnn2cccnc12,92.8
19,COc1ccc(NC(=O)C(=O)Nc2cc3c4c(c2)CC(=O)N4CCC3)cc1,122
20,O=C(Nc1ccc2c(c1)CCCN2C(=O)C1CC1)c1ccccc1C(F)(F)F,112
21,O=C(CN1CCc2nc(N3CCCC3)[nH]c(=O)c2C1)Nc1nccs1,108
22,COc1cc(NC(=O)c2cnn3c4c(cnc23)C(=O)CC(C)(C)C4)cc(OC)c1,116
23,Cc1ccc(NC(=O)c2ccnc(Nc3ccc(F)cc3)c2)cc1,122
24,COCCN(Cc1cc2ccc(C)c(C)c2nc1Cl)C(=O)Nc1ccccc1C,98.3
25,COC(=O)c1sc2ccccc2c1NC(=O)c1cc(Cl)ccc1[N+](=O)[O-],120 ± 3
26,Nc1nc(SCC(=O)NCc2ccccc2)nc2sc3c(c12)CCC3,110

row,SMILES,host macrophage viability [%]
1,CCOc1ccc(NC(=O)Nc2c(-c3cccnc3)[nH]c3ccccc23)cc1,113
2,CC1=C(C(=O)OC2CCCCCCC2)C(c2ccccc2Cl)NC(=O)N1 (centres undefined),110
3,COc1cc(C2CC(=O)Nc3c2cnn3-c2nc3ccccc3s2)ccc1OCc1ccc(C)cc1 (centres undefined),112
4,CC(C)CCNC(=O)CSc1nc(-c2cccc(Cl)c2)nc2cc(=O)[nH]n12,131
5,CCOc1ccc(NC(=O)Cn2c3ccccc3n3c(=O)cc(-c4ccccn4)nc23)cc1,127
6,Cc1cc(NS(=O)(=O)c2ccc(NC(=O)c3cnc4sccn4c3=O)cc2)nc(C)n1,103 ± 6.5
7,COc1ccc2o/c(=N\c3sc4c(c3C(N)=O)CCCC4)c(C(N)=O)cc2c1,108
8,COc1ccc(Cn2c(C)cn3c4c(=O)n(CCCO)c(=O)n(C)c4nc23)cc1,99.7
9,O=C(Cn1cnc2c(cnn2-c2cccc(Cl)c2)c1=O)OCc1ccccc1,124
10,Cc1ccccc1OCC(=O)Nc1ccccc1SCc1nnc(-c2ccccc2)o1,107
11,Fc1cccc2sc(NCc3ccccc3)nc12,114 ± 5.1
12,COc1ccc(CCNC(=O)c2cnc3c(C)cccc3c2O)cc1OC,110
13,Cc1cccnc1NC(=O)NC1CC(=O)N(c2ccc(Cl)cc2)C1 (centres undefined),114
14,COc1ccc(-c2noc(N3CCC(C(=O)Nc4cccc(C)c4C)CC3)n2)cc1,122
15,Cc1ccc(-n2nc3c(c2NC(=O)c2ccc(OC(C)C)cc2)CS(=O)C3)cc1 (centres undefined),123
16,Cc1ccc2cc(CCNC(=O)c3ccc(Br)o3)c(=O)[nH]c2c1C,130
17,CCCN1CCC2(CC1)NC(=O)N(CC(=O)NCc1ccco1)C2=O,110
18,O=C(NCc1ccccc1)c1cnc2ccccc2c1O,98.3
19,Cc1cc2cc(CCNC(=O)C(C)Oc3ccccc3)c(=O)[nH]c2cc1C (centres undefined),119
20,CCOC(=O)C1CCCN(C(=O)C(=O)c2c(C)n(C)c3ccccc23)C1 (centres undefined),95.52 ± 0.3
21,CC1CCN(C(=O)Cn2c3c(c(=O)n4ncnc24)CCC3)CC1,99.2
22,Cc1ccc(C)c(N(CC(=O)NCCc2ccccc2)C(=O)c2csnn2)c1,101
23,CC(C)NC(=O)Cn1c2c(c(=O)n3ncnc13)CCC2,107
24,CSc1nc2ccc3nc(NC(=O)c4ccc(C#N)cc4)sc3c2s1,107.9 ± 0.64
25,COc1ccccc1N1CCN(c2nn3cnnc3c3ccccc23)CC1,112
26,Cc1ccc(S(=O)(=O)Nc2ccc3nnc(-c4ccccc4)n3n2)c(C)c1,125

# Grouped by structure, the entries above with four or more nitrogen atoms
row,SMILES,host macrophage viability [%]
9,COCCNC(=O)COc1ncnc2onc(-c3ccc(F)cc3)c12,128
11,Cn1ncc2c1CCc1sc(NC(=O)CCC3CCCCC3=O)nc1-2 (centres undefined),108
12,Cc1oc2ncnc(N3CCCC(C(=O)Nc4ccc(F)c(F)c4)C3)c2c1C (centres undefined),106
13,CC1CCc2c(sc3ncn(C4CCN(C(=O)c5cc[nH]n5)CC4)c(=O)c23)C1 (centres undefined),94.9
16,CC(CCc1ccccc1)NC(=O)Cn1c2c(c(=O)n3nc(-c4ccccc4)nc13)CCC2 (centres undefined),104
17,Cc1cc(Oc2ncnc(N)c2[N+](=O)[O-])cc(C(C)C)c1,125
18,CC(C)[C@H](Cn1nc(C2CC2)ccc1=O)NC(=O)c1cnn2cccnc12,92.8
21,O=C(CN1CCc2nc(N3CCCC3)[nH]c(=O)c2C1)Nc1nccs1,108
22,COc1cc(NC(=O)c2cnn3c4c(cnc23)C(=O)CC(C)(C)C4)cc(OC)c1,116
26,Nc1nc(SCC(=O)NCc2ccccc2)nc2sc3c(c12)CCC3,110
1,CCOc1ccc(NC(=O)Nc2c(-c3cccnc3)[nH]c3ccccc23)cc1,113
3,COc1cc(C2CC(=O)Nc3c2cnn3-c2nc3ccccc3s2)ccc1OCc1ccc(C)cc1 (centres undefined),112
4,CC(C)CCNC(=O)CSc1nc(-c2cccc(Cl)c2)nc2cc(=O)[nH]n12,131
5,CCOc1ccc(NC(=O)Cn2c3ccccc3n3c(=O)cc(-c4ccccn4)nc23)cc1,127
6,Cc1cc(NS(=O)(=O)c2ccc(NC(=O)c3cnc4sccn4c3=O)cc2)nc(C)n1,103 ± 6.5
8,COc1ccc(Cn2c(C)cn3c4c(=O)n(CCCO)c(=O)n(C)c4nc23)cc1,99.7
9,O=C(Cn1cnc2c(cnn2-c2cccc(Cl)c2)c1=O)OCc1ccccc1,124
13,Cc1cccnc1NC(=O)NC1CC(=O)N(c2ccc(Cl)cc2)C1 (centres undefined),114
14,COc1ccc(-c2noc(N3CCC(C(=O)Nc4cccc(C)c4C)CC3)n2)cc1,122
17,CCCN1CCC2(CC1)NC(=O)N(CC(=O)NCc1ccco1)C2=O,110
21,CC1CCN(C(=O)Cn2c3c(c(=O)n4ncnc24)CCC3)CC1,99.2
22,Cc1ccc(C)c(N(CC(=O)NCCc2ccccc2)C(=O)c2csnn2)c1,101
23,CC(C)NC(=O)Cn1c2c(c(=O)n3ncnc13)CCC2,107
24,CSc1nc2ccc3nc(NC(=O)c4ccc(C#N)cc4)sc3c2s1,107.9 ± 0.64
25,COc1ccccc1N1CCN(c2nn3cnnc3c3ccccc23)CC1,112
26,Cc1ccc(S(=O)(=O)Nc2ccc3nnc(-c4ccccc4)n3n2)c(C)c1,125

# Continuation.

row,SMILES,host macrophage viability [%]
1,COc1ccccc1C1Nc2ccc(Br)cc2[C@H]2OCCC[C@@H]12 (some centres undefined),110
2,O=C1NC2=C(C(=O)N(CC3CCCO3)C2)C(c2ccccc2)N1 (centres undefined),109
3,Cc1ccc(CNC(=O)CSc2nc(=O)[nH]cc2C)cc1,107
4,CC1(C)CC(=O)C2=C(C1)OC(N)=C(C#N)C2c1cccs1 (centres undefined),103
5,COc1ccc(-c2cc(=O)c3ccc(NC(C)=O)cc3o2)cc1,141
6,Cc1nc2ccc3nc(NC(=O)/C=C/c4ccccc4Cl)sc3c2s1,131
7,O=C(Nc1nc2c(cc3c4c(cccc42)CC3)s1)c1cc2ccccc2oc1=O,117 ± 28
8,CCOC(=O)C1CCN(c2nn3c(NC(C)(C)C)c(-c4cccc(F)c4)nc3s2)CC1,113
9,Cc1cc(N2C(=O)c3ccccc3C2C(=O)NCCC(C)C)ccc1Br (centres undefined),125
10,CCCOc1ccc(Oc2nc(C)nc3sc(C(=O)OCC)c(C)c23)cc1,118
11,O=C(CC1(O)C(=O)Nc2ccc(Br)cc21)c1ccccn1 (centres undefined),116 ± 16
12,Cc1ccc(NC(=O)N(Cc2ccco2)Cc2cc3cccc(C)c3nc2Cl)cc1,114
13,Cc1cccn2cc(-c3ccc(NC(=O)c4ccco4)cc3)nc12,117
14,O=C(NCc1cccnc1)C(=O)NCC1OCCN1C(=O)c1ccc(Cl)cc1 (centres undefined),107
15,O=c1[nH]c2c(s1)C(c1ccc(O)cc1)C1C3CCC(C3)C1S2 (centres undefined),112
16,O=C(Cn1c2ccccc2n2c(=O)cc(-c3ccccc3)nc12)Nc1ccccc1C(F)(F)F,134
17,COc1cccc(C(=O)Nc2nc3ccc([N+](=O)[O-])cc3s2)c1OC,90.4
18,Cc1ccc(Nc2c(C(=O)NC3CCCC3)cnc3c2c(C)nn3C)cc1,97.3
19,O=C(Nc1ccc2c(c1)C(=O)NC2=O)c1cccc(C(F)(F)F)c1,122
20,O=C(CC1Nc2cccc3cccc(c23)NC1=O)Nc1ccc(F)cc1 (centres undefined),115
21,CCCCN1C(=O)C(C#N)=C(C)/C(=C/Nc2ccccc2C(=O)O)C1=O,122
22,COc1ccc(N2CCCS2(=O)=O)cc1NC(=O)c1cccc(C(F)(F)F)c1,108
23,CCc1ccc(-c2cc(C(=O)N/N=C(\C)c3ccncc3)[nH]n2)cc1,99.8
24,O=[N+]([O-])c1ccc2oc(SCc3nc4ccccn4c3Br)nc2c1,120
25,Nc1c(C(=O)Nc2ccc(Cl)c(Cl)c2)c2ccccn2c1C(=O)c1cccs1,125
26,CCCN1CCN(c2nn3nnnc3c3ccccc23)CC1,119

# Part of the list above in order of formula weight, smallest number first:
row,SMILES,host macrophage viability [%]
13,Cc1cccn2cc(-c3ccc(NC(=O)c4ccco4)cc3)nc12,117
23,CCc1ccc(-c2cc(C(=O)N/N=C(\C)c3ccncc3)[nH]n2)cc1,99.8
20,O=C(CC1Nc2cccc3cccc(c23)NC1=O)Nc1ccc(F)cc1 (centres undefined),115

# Later entries:

row,SMILES,host macrophage viability [%]
1,Cc1cc(N2CCN(c3ccc(O)cc3)CC2)nc(-n2nc(C)cc2C)n1,121
2,O=C1NC(=S)S/C1=C\c1nc2ccccc2[nH]1,102
3,Cc1cc(C)nc(-n2[nH]c3nccc(-c4ccc5c(c4)OCO5)c3c2=O)n1,122
4,COc1cc(NC(=O)Cn2c(=O)n3nc(-c4ccc(C)cc4)nc3c3ccccc32)cc(OC)c1,112
5,COc1ccc(C(=O)N(Cc2ccc(Cl)cc2)c2nc3[nH]c(C)c(C)c(=O)n3n2)cc1,108
6,Cc1ccc(-c2nnc3ccccc3c2C(=O)Nc2cc(C)ccn2)cc1,124
7,Cc1ccc(Cn2c(=O)c3ccccc3n3c(=S)[nH]nc23)cc1,135
8,COCCN1C(=O)C2C(c3ccccc3O)NN(Cc3ccccc3)C2C1=O (centres undefined),117
9,C=CCN1CC(C(=O)Nc2ccc3c(C)cc(C)nc3n2)CC1=O (centres undefined),103
10,Cc1cccn2c(=O)c(/C=C(\C#N)C(N)=O)c(Oc3ccc(Cl)cc3)nc12,148
11,CCOC(=O)CSc1ccc2nnc(-c3cccs3)n2n1,135
12,Cc1cc(NC(=O)CCCN2C(=O)c3cccc4cccc(c34)C2=O)n(-c2ccccc2)n1,119
13,Cc1ccc2oc(=O)c(-c3nc4ccc([N+](=O)[O-])cc4[nH]3)cc2c1,114
14,COc1ccc2nc(NC(=O)Nc3ccc(C)cc3Cl)sc2c1,104
15,COc1ccc(C2CC(c3cccc(NS(C)(=O)=O)c3)=NN2S(=O)(=O)c2ccc(C)cc2)cc1 (centres undefined),99.4
16,COc1ccc(-c2nc3cc(C)ccn3c2NC(=O)CCc2ccccc2)cc1,101
17,Cc1oc2ncnc(OCC(=O)NCC3CCCO3)c2c1C (centres undefined),112
18,CCOCCCNC(=O)CCn1cnc2c(-c3ccc(C)cc3)noc2c1=O,76.3
19,O=C(CC1Nc2ccccc2NC1=O)Nc1cc(Cl)cc(Cl)c1 (centres undefined),119
20,O=C1CC(N2CCN(Cc3ccccc3)CC2)C(=O)N1 (centres undefined),122
21,COc1cccc(-c2cc3nc(C)cc(NCc4cccnc4)n3n2)c1,93.3
22,Cc1ccc(C(C)C)c(OCC(=O)N/N=C2/C(=O)N(C)c3ccccc32)c1,95.8
23,Cc1nn(C)c(C)c1CNC(=O)c1cc2n(n1)CCCN(Cc1ccc(F)cc1)C2=O,110
24,COCCn1/c(=N/C(=O)c2ccc([N+](=O)[O-])s2)sc2cc(F)ccc21,104
25,CC(=O)NNc1nc(-c2ccccc2)c2cc(Cl)ccc2n1,113
26,CCN1C(=O)C(C)(C)COc2ccc(NC(=O)CCc3ccc(OC)cc3)cc21,117
